Source: paper PMC4153671
Results are given in words; binding and its absence hold for the method and conditions named. In cells and extracts the contact can be indirect. Some entries that bind do so weakly or less than the wild type.

Protein sequences, listed by entry. Tags and fused reporters are not part of them.
UniProt P17918: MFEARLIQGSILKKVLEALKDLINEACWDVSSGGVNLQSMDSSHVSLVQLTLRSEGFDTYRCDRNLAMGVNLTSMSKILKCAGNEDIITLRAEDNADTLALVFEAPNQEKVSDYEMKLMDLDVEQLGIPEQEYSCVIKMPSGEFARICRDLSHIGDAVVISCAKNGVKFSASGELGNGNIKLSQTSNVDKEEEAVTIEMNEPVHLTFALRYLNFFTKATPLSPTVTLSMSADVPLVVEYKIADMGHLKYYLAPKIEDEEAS

How the values were obtained:
[1] = molecular target: Cdc45, endogenous in mouse cortical neurons (mouse (endogenous in cortical neurons)) (UniProt Q9Z1X9); test: co-IP; formaldehyde cross-linked, sonicated nucleoprotein (DNA/protein) fragments of neurons treated with 200 µM MPP^+ for 12 h; precipitated with anti-Cdc45, mouse anti-p49 or anti-DNA pol-β antibody
[2] = molecular target: T1, p49 subunit of DNA primase, endogenous in mouse cortical neurons (mouse (endogenous in cortical neurons)) (UniProt P20664); test: as above
T1 sequence: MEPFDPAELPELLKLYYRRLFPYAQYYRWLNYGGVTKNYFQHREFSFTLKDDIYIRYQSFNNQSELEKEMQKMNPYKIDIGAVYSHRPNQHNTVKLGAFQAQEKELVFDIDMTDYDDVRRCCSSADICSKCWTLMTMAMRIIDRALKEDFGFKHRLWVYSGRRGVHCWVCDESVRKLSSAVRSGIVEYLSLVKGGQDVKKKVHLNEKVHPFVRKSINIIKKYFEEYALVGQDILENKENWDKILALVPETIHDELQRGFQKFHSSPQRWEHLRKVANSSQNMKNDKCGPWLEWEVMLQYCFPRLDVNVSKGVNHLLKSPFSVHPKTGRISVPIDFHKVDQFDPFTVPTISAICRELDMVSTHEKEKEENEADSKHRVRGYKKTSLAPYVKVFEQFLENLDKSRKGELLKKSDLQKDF

proliferating cell nuclear antigen (PCNA), endogenous in mouse cortical neurons (from UniProt P17918 1-261)
binding [1]: binds | binding [2]: binds
